Results on one substance are retold here after US20210170046 (published 2021).

This data set in a line: general procedure: Fmoc solid-phase peptide synthesis. As to conditions: whole synthesis, reverse phase HPLC, one disulfide bridge, sequence written open.

As for (K)16RVRRGACRGDCLG, the “final HPLC purity” value is recorded as over 90%.
